Assay results taken from US20260274910A1, “SINGLE FUSION PROTEIN AND PHARMACEUTICAL COMPOSITION” (MEDI&GENE INC., priority 2023, published 2026).
Some of these results come from one statement about several compounds together.

Biological target: ATP5B protein (Homo sapiens, UniProt P06576)
Assay: SPR binding ability test
Settings: compared with SEQ ID NO: 16 as printed
Protocol: In order to evaluate substitutable residues within a sequence, an SPR (surface plasma resonance) test was conducted. Specifically, the ATP5B protein was conjugated to a CM5 chip by amine-conjugation, and then the contact of each test substance was observed under the condition of a flow rate of 50 μl/min, and the refractive index was measured. Thereafter, by converting each binding unit, the binding ability was compared and evaluated. […] A decrease of 10% or more in binding ability was considered to indicate a negative effect of the substitution.

Substance	Reduction of binding ability
SEQ ID NO: 25: Shortened substance (8-35) amino acid Ala substituted (19) VDRGAGSIREAAGAFGKREQAEEERYFR	≥ 10%
SEQ ID NO: 26: Shortened substance (8-35) amino acid Ala substituted (20) VDRGAGSIREAGAAFGKREQAEEERYFR	≥ 10%
SEQ ID NO: 32: Shortened substance (8-35) amino acid Ala substituted (27) VDRGAGSIREAGGAFGKREAAEEERYFR	≥ 10%
